{"source": "PubChem BioAssay AID1259308 (NCATS, 2017)", "test": "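Genes whose loss raises luciferase production in HEK293 cells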 (primary screen)", "cell system": "human HEK293 embryonic kidney cells stably expressing firefly luciferase (HEK-CMV-Luc2-Hygro)", "reagent": "single siRNA against human genes, 0.8 pmol siRNA per well", "time to read-out": "72 h", "measured": "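Reporter luminescence and viable-cell signal on separate replicate plates, given as percent of non-targeting control and median/MAD z-scores, plus per-cell luciferase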", "direction": "total luciferase, z-score: higher = more reporter protein produced", "call rule": "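Active when the median/MAD z-score for overall luciferase is greater than 3; a gene was taken forward for validation with new siRNAs if at least two of its three siRNAs passed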", "calls": "active = raised luciferase; inactive = no rise", "note": "The whole screen tested about 59,000 reagents; this is a part drawn at random. About 1,510 of them (2.6%) were called active. 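Calls use total luciferase alone and ignore viability, so some active siRNAs may act by altering cell number.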 Entries without a mark were called inactive. Reagents against one gene are numbered here. Not all columns of the deposit are shown. No sequences are given here."}
{"target gene":"CEACAM21 (CEA cell adhesion molecule 21)","siRNA no.":1,"total luciferase, z-score":2.19}
{"target gene":"CEACAM21 (CEA cell adhesion molecule 21)","siRNA no.":2,"total luciferase, z-score":0.314}
{"target gene":"CEACAM21 (CEA cell adhesion molecule 21)","siRNA no.":3,"total luciferase, z-score":-0.53}
{"target gene":"YAE1 (YAE1 maturation factor of ABCE1)","siRNA no.":1,"total luciferase, z-score":-0.00425}
{"target gene":"YAE1 (YAE1 maturation factor of ABCE1)","siRNA no.":2,"total luciferase, z-score":-0.429}
{"target gene":"YAE1 (YAE1 maturation factor of ABCE1)","siRNA no.":3,"total luciferase, z-score":-0.899}
{"target gene":"TAS2R41 (taste 2 receptor member 41)","siRNA no.":1,"total luciferase, z-score":0.388}
{"target gene":"TAS2R41 (taste 2 receptor member 41)","siRNA no.":2,"total luciferase, z-score":-1.68}
{"target gene":"TAS2R41 (taste 2 receptor member 41)","siRNA no.":3,"total luciferase, z-score":0.375}
{"target gene":"HOXC10 (homeobox C10)","siRNA no.":1,"total luciferase, z-score":-1.05}
{"target gene":"HOXC10 (homeobox C10)","siRNA no.":2,"total luciferase, z-score":-0.55}
{"target gene":"HOXC10 (homeobox C10)","siRNA no.":3,"total luciferase, z-score":0.208}

Reformatted: 2 of the entries above
YAE1 (YAE1 maturation factor of ABCE1) #3 — total luciferase, z-score = -0.899
TAS2R41 (taste 2 receptor member 41) #1 — total luciferase, z-score = 0.388
